Values joined by “and” are separate entries in the source; they are usually repeats but may differ in a detail not shown here. Identical values can stand only once. The list shows a part of the results. Each value is one well over the wells without odorant, computed here; the data are noisy.
Legend:
Experiment in all cases: odorant receptor activation (CRE luciferase / Renilla) (fold of no-odor wells); higher = more activation
Conditions in all cases: 100 µM
OR51L1 clone 1534 = system: OR51L1 clone 1534
[1] = system: OR51M1 H91Q/L124F/I193T/P245H/F307L clone 1121
OR51Q1 clone 1190 = system: OR51Q1 clone 1190
OR51S1 clone 1699 = system: OR51S1 clone 1699
OR51T1 clone 1326 = system: OR51T1 clone 1326
OR51V1 clone 1700 = system: OR51V1 clone 1700
OR51V1 clone 1701 = system: OR51V1 clone 1701
OR52A1 S272P clone 1151 = system: OR52A1 S272P clone 1151
OR52A4 clone 1719 = system: OR52A4 clone 1719
OR52A5 clone 1568 = system: OR52A5 clone 1568
OR52B2 clone 1210 = system: OR52B2 clone 1210
OR52B4 clone 1508 = system: OR52B4 clone 1508
[2] = system: OR52B6 T36A/L90H/A146T/H149R/V267I clone 1306
OR52D1 clone 1164 = system: OR52D1 clone 1164
OR52E1 clone 1113 = system: OR52E1 clone 1113
[3] = system: OR52E2 H174R/R264C clone 1184
[4] = system: OR52E4 V176I/R184M/R228H clone 1123
OR52E5 P234L clone 1124 = system: OR52E5 P234L clone 1124
OR52E6 clone 1196 = system: OR52E6 clone 1196
OR52E8 clone 1154 = system: OR52E8 clone 1154

Structure (SMILES)	odorant receptor activation (OR51L1 clone 1534)	odorant receptor activation [1]	odorant receptor activation (OR51Q1 clone 1190)	odorant receptor activation (OR51S1 clone 1699)	odorant receptor activation (OR51T1 clone 1326)	odorant receptor activation (OR51V1 clone 1700)	odorant receptor activation (OR51V1 clone 1701)	odorant receptor activation (OR52A1 S272P clone 1151)	odorant receptor activation (OR52A4 clone 1719)	odorant receptor activation (OR52A5 clone 1568)	odorant receptor activation (OR52B2 clone 1210)	odorant receptor activation (OR52B4 clone 1508)	odorant receptor activation [2]	odorant receptor activation (OR52D1 clone 1164)	odorant receptor activation (OR52E1 clone 1113)	odorant receptor activation [3]	odorant receptor activation [4]	odorant receptor activation (OR52E5 P234L clone 1124)	odorant receptor activation (OR52E6 clone 1196)	odorant receptor activation (OR52E8 clone 1154)
CCCCO [1-butanol]	0.924	0.876	1.01	0.801	0.881	0.947	0.984	1.02	1.21	0.855	0.863	1.2	0.983	1.13	7.27	0.63	0.865	0.838	1.12	0.959
CC(C)CC(=O)O [isovaleric acid]	0.924	1.33	0.996	0.988	0.571	1.02	1.15	1.23	0.977	1.03	1.01	0.699	0.189	1.12	1.09	1.09	1.21	0.983	0.963	1.02
CCCCCCCC=CC=O [2-decenal]	1.43	0.893	0.878	1.2	0.915	1.16	0.908	0.965	1.18	1.07	0.686	1.88	1.3	1.03	10.7	0.579	1.18	0.935	1.43	1.14
CC(C)=CCCC(C)=CC=O [citral]	0.677	1.58	1.02	0.035	1.15	0.009	0.984	0.901	1.03	1.36	1.03	0.968	1.17	0.989	0.966	1.04	1.01	1.33	0.971	1.31
CC=Cc1ccc(O)c(OC)c1 [isoeugenol]	1.29 and 1.32	5.56	1.04	4.07	1.06 and 1.02	4.2	5.93	1.27	3.55	5.36	2.11	0.976 and 2.57	1.13 and 1.36	0.924	0.592	1.74	5.03	3.99	1	0.865
CC12CCC(CC1)C(C)(C)O2 [cineole]	0.752	0.865	0.816	1.01	0.925	1.16	0.846	0.65	0.703	1.7	0.782	0.776	0.845	0.573	0.741	0.731	0.889	0.901	0.827	0.953
CCCCCCCCCC=O [decyl aldehyde]	0.986	1.9	1.2	0.645	1.15	0.598	0.98	1.12	0.729	0.986	1.27	0.962	1.08	1.1	1.02	0.915	0.992	1.63	1.15	1.27
CCCCCCCCOC(C)=O [octyl acetate]	0.935	1.04	1.09	0.689	0.775	0.968	0.604	1.08	0.741	0.717	0.756	0.976	0.202	0.931	1.02	1.01	1.06	0.736	1.07	0.86
c1cnccn1 [pyrazine]	0.91	0.937	0.579	0.937	0.99	1.01	0.599	0.847	0.672	0.849	0.869	0.693	0.784	1.08	0.99	0.768	1.11	0.878	0.98	1.15
CC(C)C(=O)O [isobutyric acid]	0.989 and 0.869	1.07	1.12	1.03	1.05 and 1.06	1.05	1.13	0.994	0.854	0.794	1.25	0.5 and 1.03	1.03 and 0.986	0.932	0.617	0.894	0.908	0.86	1.37	1.14
C=CCSCC=C [diallyl sulfide]	1.25	1.77	0.951	0.589	1.13	0.589	1.02	0.95	0.742	1.01	1.36	1.32	0.876	0.826	0.836	0.916	1.14	1.59	1.07	1.03
C=CCc1ccc(OC)c(OC)c1 [eugenol methyl ether]	1.42	1.75	1.51	0.68	1.55	0.976	0.713	1.3	0.947	1.05	1.33	1.39	1.14	1.36	1.22	1.35	1.99	1.83	1.4	1.5
COc1cc(C=O)ccc1O [vanillin]	0.919	0.856	0.891	1.52	1.02	0.716	0.751	1.08	0.493	0.974	0.914	1.08	1.09	1.44	0.658	0.871	0.984	0.95	0.904	0.958
CCCC(=O)O [butyric acid]	0.826	1.1	0.852	1.32	0.832	0.752	0.873	0.927	0.635	1.06	0.981	1.19	0.976	0.82	0.938	0.985	1.11	1.16	1.06	1.03
O=CCc1ccccc1 [phenyl acetaldehyde]	4.51	1.28	0.723	1.72	0.959	1.92	1.83	1.18	1.71	2.16	0.94	1.08	1.19	1.31	1.14	0.808	1.18	1.35	1.02	1.24
CC(C)CCC(=O)O [4-methylvaleric acid]	1.52	0.902	0.793	0.819	0.815	1.03	0.797	0.891	1.01	0.82	0.916	0.884	0.97	1.08	4.04	0.733	0.878	0.806	0.978	0.82
CC(C)C=O [isobutyraldehyde]	0.809 and 1.3	0.94	0.907	0.953	1.04 and 1.01	0.79	1	0.882	1.08	0.911	1.58	0.718 and 1.07	0.858 and 1.01	1.21	0.929	0.996	0.833	0.81	1.12	1.07
CCCCCCCCCCC=O [undecanal]	0.981	0.893	0.91	1.02	0.97	1.23	0.784	0.843	0.876	1.17	0.954	1.09	1.04	1.06	0.88	0.874	1.01	0.939	0.786	0.984
CC(=O)C(C)=O [diacetyl]	1.49	1.54	0.938	0.594	1.19	0.627	0.88	1.09	0.968	1	1.07	1.23	0.842	1.08	0.871	0.95	0.999	1.46	1.12	1.22
C=CC(C)(O)CCC=C(C)C (stereo not given) [linalool]	1.13	1.34	1.03	0.908	0.53	1.09	1.14	1.21	1.11	1.04	0.951	0.862	0.178	1.04	1.07	1.15	1.06	0.955	1	0.941
CCCCCCCCC=O [nonyl aldehyde]	1.06	1.59	1.04	0.682	0.605	1.18	0.696	1.02	0.755	0.89	0.845	0.928	0.179	1.13	0.947	1.06	1.12	0.984	1.1	0.942
COC(=O)c1ccccc1O [methyl salicylate]	1.04	0.968	0.962	1.08	0.509	0.867	1.08	0.803	0.845	0.844	0.748	0.837	0.166	0.829	0.951	1.08	1.08	0.887	0.832	0.905
CC12CCC(C1)C(C)(C)C2=O (stereo not given) [fenchone]	1.12	1.55	0.787	0.813	0.997	0.944	0.642	0.849	0.912	0.96	0.961	1.03	0.804	0.774	0.889	0.87	1.5	1.78	1.46	1.04
CC(=O)OC1CC2CCC1(C)C2(C)C (stereo not given) [isobornyl acetate]	0.864 and 0.997	1.17	1.01	1.21	0.838 and 1.23	1	1.03	1.09	0.918	0.875	1.2	0.453 and 1.02	1.03 and 0.975	0.673	0.795	1.07	0.805	0.736	1.26	0.917
CC/C=C\CCO [cis-3-hexen-1-ol]	0.862	0.941	0.869	1.03	0.835	1.11	0.963	0.813	0.659	1.24	0.855	1	0.927	0.811	0.754	1.06	1	0.972	1.07	1.12
CCC1(O)C2(C)CCC(C2)C1(C)C (stereo not given) [2-ethylfenchol]	1.06	0.898	0.886	0.798	0.96	0.94	0.821	0.913	0.834	0.772	0.833	1.06	0.952	0.719	10.5	1.13	1.03	0.779	1.29	0.815

Source: the odorant receptor screen of Mainland et al. (2015)
